Measurements reported in PubChem BioAssay AID1259424 (University of Nebraska Medical Center, 2018)

Test: 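Seek colon cancer survival genes behaving like KSR1, using a six-gene signature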 (primary screen)
System: human HCT116 colon cancer cells
Reagents: siRNA pool against human genes, 50 nM
Measurement: 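Log2 levels of six mRNAs (branched-DNA multiplex), adjusted by two reference genes and the non-targeting median, then scored against the average KSR1 knockdown pattern as Pearson r and euclidean distance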
Scale: mean correlation with KSR1 profile and KSR1 correlation: higher = expression change more like KSR1 knockdown; mean distance from KSR1 profile: higher = expression change less like KSR1 knockdown
This is one part, drawn at random, of about 14,000 reagents. 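Higher correlation or smaller distance means closer resemblance to KSR1 loss; control wells, including KSR1 knockdowns, recur on many plates.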 Not all columns of the deposit are shown. The record does not give: the time to read-out.

| Target gene | mean correlation with KSR1 profile | mean distance from KSR1 profile | KSR1 correlation, replicate 1 |
| --- | --- | --- | --- |
| PACS1 (phosphofurin acidic cluster sorting protein 1) | -0.433 | 2.26 | -0.481 |
| VCPKMT (valosin containing protein lysine methyltransferase) | 0.486 | 1.66 | 0.511 |
| RABL2A (RAB, member of RAS oncogene family like 2A) | 0.689 | 1.7 | 0.76 |
| RGS10 (regulator of G protein signaling 10) | -0.215 | 1.38 | 0.205 |
| RPAIN (RPA interacting protein) | 0.471 | 1.89 | 0.176 |
| WDTC1 (WD and tetratricopeptide repeats 1) | -0.539 | 2.32 | -0.557 |
| RPS4Y1 (ribosomal protein S4 Y-linked 1) | -0.00085 | 1.65 | 0.0386 |
| MIS18BP1 (MIS18 binding protein 1) | 0.193 | 1.92 | 0.328 |
| MED6 (mediator complex subunit 6) | 0.00438 | 3.88 | 0.129 |
| MYOT (myotilin) | 0.355 | 1.81 | 0.261 |
| MAPK6 (mitogen-activated protein kinase 6) | 0.245 | 1.39 | -0.0549 |
| SLCO1B3 | 0.415 | 1.03 | 0.0988 |
| C8orf76 (chromosome 8 open reading frame 76) | 0.465 | 1.55 | 0.287 |
| SELENON (selenoprotein N) | 0.679 | 2.05 | 0.218 |
| LARP6 (La ribonucleoprotein 6, translational regulator) | -0.33 | 3.27 | -0.0639 |
| SSR2 (signal sequence receptor subunit 2) | -0.0711 | 1.74 | -0.307 |
| NOS2 (nitric oxide synthase 2) | 0.0189 | 1.95 | -0.0347 |
| FIG4 (FIG4 phosphoinositide 5-phosphatase) | -0.419 | 2.15 | -0.234 |

Next part, starting with the last 3 of the part before.
| Target gene | mean correlation with KSR1 profile | mean distance from KSR1 profile | KSR1 correlation, replicate 1 |
| --- | --- | --- | --- |
| SSR2 (signal sequence receptor subunit 2) | -0.0711 | 1.74 | -0.307 |
| NOS2 (nitric oxide synthase 2) | 0.0189 | 1.95 | -0.0347 |
| FIG4 (FIG4 phosphoinositide 5-phosphatase) | -0.419 | 2.15 | -0.234 |
| BFAR (bifunctional apoptosis regulator) | 0.0991 | 1.28 | -0.233 |
| AAK1 (AP2 associated kinase 1) | 0.572 | 2.92 | 0.535 |
| SREBF1 (sterol regulatory element binding transcription factor 1) | 0.582 | 1.43 | 0.675 |
| TM2D3 (TM2 domain containing 3) | -0.0539 | 2.13 | -0.396 |
| SIPA1 (signal-induced proliferation-associated 1) | 0.787 | 0.756 | 0.911 |
| UBE2E1 (ubiquitin conjugating enzyme E2 E1) | -0.0678 | 3.07 | -0.0367 |
| FKBP4 (FKBP prolyl isomerase 4) | 0.15 | 2.51 | 0.157 |
| WNT16 (Wnt family member 16) | -0.578 | 2.11 | -0.634 |
| DNAAF2 (dynein axonemal assembly factor 2) | -0.616 | 4.03 | -0.477 |
| BAHCC1 (BAH domain and coiled-coil containing 1) | -0.108 | 2.05 | -0.123 |
| PRR13 (proline rich 13) | -0.253 | 3.64 | -0.144 |
| ST3GAL3 (ST3 beta-galactoside alpha-2,3-sialyltransferase 3) | 0.336 | 3.49 | 0.383 |
| CRAMP1 (cramped chromatin regulator 1) | -0.481 | 1.88 | -0.55 |
| CDS2 (CDP-diacylglycerol synthase 2) | 0.0874 | 3 | 0.204 |
| PTH (parathyroid hormone) | 0.615 | 1.78 | 0.733 |
| SRGN (serglycin) | 0.416 | 3.21 | -0.00226 |
